From patent publication US12486495B2, “Cardiac organoid, manufacturing method therefor, and method for evaluating drug toxicity by using same” (priority 2020, dated 2025)

Tested on: cardiac organoid

## COC(=O)C1=C(C)NC(C)=C(C(=O)OC)C1c1ccccc1[N+](=O)[O-] [nifedipine]
After 10 μM treatment, FIG. 13D
  pattern of contraction and relaxation: sporadic contraction and relaxation
Comparison of three treatment amount groups, FIG. 13B/13C
  beat rate variation after treatment: highest in a 10 μM treatment group and lowest in a 100 nM treatment group
Inferred from beat rate variation of the cardiac organoid
  treatment amount at which side effects in the heart in vivo may be caused: ≥ 10 µM
